Experimental data: PubChem BioAssay AID1487 (National Center for Advancing Translational Sciences (NCATS), 2009)
The other results are listed elsewhere or left out. Shown are side measurements of this screen, not its main read-out; they come without a call. Most of these compounds were active or inconclusive in the main read-out, so they are no random draw. The note in brackets gives the kind of curve behind each potency; many fits are weak.

Test: qHTS Assay for Modulators of Lamin A Splicing
Conditions: HeLa LMNA splicing GFP/RFP minigene ratio, 48 h
In short: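 S3 HeLa cells stably expressing lamin A-EGFP splicing minigene plus DsRed2, 600 cells/well, 48 h compound exposure at 37C. Laser-scanning cytometry; analysed as GFP (500-530 nm)/RFP (575-640 nm) total intensity ratio; 0.5% DMSO vehicle.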

[1] = measured here: RFP viability control channel
[2] = measured here: GFP splicing reporter channel

SMILES | AC50 [1] | AC50 [2]
COc1cc(OC)cc(C(=O)Nc2nc3ccccc3[nH]2)c1 | 14.1 µM [rising, single point] | 
COc1ccc(Cn2c(CCC(=O)NCc3ccco3)nc3cccnc32)cc1 | 0.891 µM [falling, full curve, poor fit] | 
CCc1nc(N2CCN(C(=O)c3ccco3)CC2)c2oc3ccccc3c2n1 | 11.2 µM [rising, partial curve] | 
CCc1nnc(NC(=O)CSc2nnc3c(n2)[nH]c2ccccc23)s1 |  | 0.0398 µM [rising, full curve, poor fit]
Cn1c(=O)c2c(nc(SCC(=O)NCC3CCCO3)n2Cc2ccc(F)cc2)n(C)c1=O (configuration not stated) |  | 28.2 µM [falling, partial curve, poor fit]
CC(=O)c1ccc(OCC(=O)c2ccc(-c3ccccc3)cc2)cc1 | 28.2 µM [rising, partial curve] | 22.4 µM [rising, partial curve, poor fit]
COc1ccc2[nH]c(=O)c(CNc3ccc(C)c(C)c3)cc2c1 | 11.2 µM [rising, partial curve] | 3.16 µM [rising, partial curve]
Cc1cc2ccccc2nc1SCC(=O)NC1CCCCC1 | 0.316 µM [rising, partial curve] | 0.316 µM [rising, partial curve]
O=S(=O)(Nc1cccc2c1ccc1cccn12)c1cccs1 |  | 35.5 µM [rising, single point]
O=C1/C(=C\c2ccco2)SC(=S)N1c1ccc(O)cc1 | 14.1 µM [rising, partial curve] | 12.6 µM [rising, partial curve]
CCCC(=O)Nc1nc(-c2ccc(OC)cc2)cs1 | 25.1 µM [rising, single point] | 
OCCC1CN(Cc2cc3c(cc2Cl)OCO3)CCN1C1CCCC1 (configuration not stated) |  | 35.5 µM [falling, single point]
O=C(CC(Nc1ccccc1)c1ccc(F)cc1)c1ccccc1 (configuration not stated) |  | 11.2 µM [falling, partial curve]
CC1=C(C(=O)OCC2CCCO2)C(c2coc3ccccc3c2=O)C2=C(CC(C)(C)CC2=O)N1 (configuration not stated) | 35.5 µM [falling, single point] | 
COc1cc2c(cc1OC)CN(CC(=O)NC(=O)NCc1ccccc1)CC2 | 0.02 µM [rising, full curve, poor fit] | 
CCOC(=O)c1ccc(NC(=O)CSc2nc3ncc(Br)c(C)c3[nH]2)cc1 | 0.141 µM [falling, full curve] | 
Cc1ccc(S(=O)(=O)N2CN(Cc3ccco3)c3nc4ccccc4nc32)cc1 | 14.1 µM [rising, partial curve] | 11.2 µM [rising, partial curve, poor fit]

Nothing new here: 2 of the compounds above.
SMILES | AC50 [1] | AC50 [2]
COc1ccc(Cn2c(CCC(=O)NCc3ccco3)nc3cccnc32)cc1 | 0.891 µM [falling, full curve, poor fit] | 
CCc1nc(N2CCN(C(=O)c3ccco3)CC2)c2oc3ccccc3c2n1 | 11.2 µM [rising, partial curve] | 
